PubChem BioAssay AID1259405 | NCATS | 2018

- Test: 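Mouse-designed siRNAs used to find CHO productivity engineering targets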 (primary screen)
- Cells: Chinese hamster CHO-K1 ovary cells with stable secreted eGFP expression
- Knock-down reagent: single siRNA against mouse genes, 0.8 pmol siRNA per well (2 µl of 400 nM stock)
- Duration: 3 days
- Measured: 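Per-well intracellular GFP measured by laser scanning cytometry, plus viability from ATP luminescence, each relative to plate median of non-targeting control wells, in %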
- Scale: GFP, % of control: higher = more GFP per well, higher productivity; viability (ATP), % of control: higher = more viable cells (more ATP)
- Hit rule: 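Called active when intracellular GFP, relative to negative control, is at or above 120%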
The whole screen tested about 50,000 reagents; below is a random part of them. About 4,000 of them (8%) were called active. 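Mouse siRNA library applied to hamster cells; one well for each siRNA.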 Entries without a mark were called inactive. Reagents against one gene are numbered here.

Gene,siRNA no.,"GFP, % of control","viability (ATP), % of control"
Man1b1,1,57.3,97.6
Man1b1,2,88,85
Man1b1,3,126 (active),80.8
Fntb,1,110,97.7
Fntb,2,71.3,205
Fntb,3,121 (active),110
Nkx2-5,1,71.1,53.5
Nkx2-5,2,89.3,90.9
Kcns3,1,103,89.1
Kcns3,2,65.3,49.8
Pld5,1,59,75.3
Pld5,2,95.6,86.1
Pld5,3,83.2,75.4
Esrrg,1,57.7,38
Esrrg,2,29.3,48.3
Actrt1,1,93,64.8
Actrt1,2,99.1,93.5
Zfp84,1,88.4,92.1
Zfp84,2,91.4,75
Tjap1,1,67.2,48.3
Tjap1,2,101,99.7
Tjap1,3,87.7,78.6
Tm4sf20,1,65.6,67.8
Tm4sf20,2,51.5,69.3
Tm4sf20,3,65.2,82.9
Parp3,1,96.5,87.7
Parp3,2,84.6,68
Parp3,3,67.5,75.8
Hdac7,1,86.4,76.7
Hdac7,2,179 (active),104
Hdac7,3,68.5,90.5
Hdac7,4,98.6,95.3
Hdac7,5,81.9,84.2
Hoxa9,1,77.3,65
Hoxa9,2,59.5,81.7
Hoxa9,3,40.8,78.9
Foxs1,1,79.2,90.7
Foxs1,2,115,84.8
Or4f56,1,133 (active),97
Or4f56,2,118,61.8
Or4f56,3,65.7,57.2
Dgkeos,1,87.6,52.7
Dgkeos,2,197 (active),28.7
Dgkeos,3,65.2,53.5
Scn1a,1,57.9,74.5
Scn1a,2,4.5,4.91
Scn1a,3,80.8,50.5
Zfp78,1,92.4,75.7
Zfp78,2,55.1,46.7
Eif4e3,1,111,95.8
Eif4e3,2,117,78.8
Eif4e3,3,211 (active),63.7
Or4z4,1,49.4,59.5
Or4z4,2,57.4,109
Or4z4,3,65.3,91.5
Gfpt2,1,122 (active),102
Gfpt2,2,108,170
Gfpt2,3,99,87.3
Ifi44l,1,65.3,78.7
Ifi44l,2,96.9,83.6
Ifi44l,3,67.7,92
Cacna1f,1,59,78.4
Cacna1f,2,70.9,52.8
Cacna1f,3,91.9,69.6
Manf,1,90.6,53.9
Manf,2,83.9,66.5
Manf,3,46.5,33.9
Gm5142,1,58.6,86.7
Gm5142,2,79.2,90.7
Gm5142,3,55.5,75.6
Trarg1,1,82.9,67.1
Trarg1,2,65.1,78.9
Trarg1,3,92.6,95.4
Cd300lf,1,73.9,93.9
Cd300lf,2,65.4,64.7
Cd300lf,3,83.3,45.1
Ndufv1,1,78.3,80.8
Ndufv1,2,64.4,36.9
Ndufv1,3,65.5,86.3
Fancm,1,72.7,103
Fancm,2,90.6,84.1
Fancm,3,132 (active),73.7
Tmem123,1,87.7,89.2
Tmem123,2,80.4,81.6
Tmem123,3,71.4,68.6

Single entries from the entries so far.
Result of Fancm #1 in “viability (ATP), % of control”: 103
Cd300lf #1, GFP, % of control = 73.9
Value for Zfp84 #2 under “viability (ATP), % of control”: 75
For “GFP, % of control”, Kcns3 #2 is entered as 65.3
Zfp78 #1, viability (ATP), % of control: 75.7
For “viability (ATP), % of control”, Or4f56 #2 has 61.8
